Assay results reported in PubChem BioAssay AID445 (National Center for Advancing Translational Sciences (NCATS), 2006).
Values joined by “and” are separate entries in the source; they are usually repeats but may differ in a detail not shown here. Equal values may be shown once. This is one part of the list. The main result of the screen is listed elsewhere. These columns were measured beside it and carry no call. The list favours compounds with an active or inconclusive main result. Words in brackets tell the shape of the fitted curve; partial curves, single points and poor fits give uncertain potencies.

Test: IkB Signaling
Conditions: ABC-DLBCL IkBa-CBG/CBR dual luciferase ratio (green luciferase fused to IkBa over red control in OCI-Ly3 lymphoma cells), 4 h
In short: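 Curves were fitted separately to fusion (green), unfused (red) and ratio luminescence, then classed by r2, magnitude and activity. Cells: OCI-Ly3, 4 h compound plus doxycycline at 37C; 10 uM MG-132 defined full response.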

[1] = measured here: control luc red channel
[2] = measured here: IkB-luc green channel

Row | SMILES | AC50 [1] | AC50 [2]
1 | CC(=O)O[C@H]1C[C@@H](O[C@@H]2[C@H](C)O[C@H](O[C@@H]3[C@H](C)O[C@H](O[C@@H]4CC[C@@]5(C)[C@@H](CC[C@]6(C)[C@]5(C)C[C@H](O)[C@]5(C)[C@@H](C7=CC(=O)OC7)CC[C@@]56O)C4)C[C@@H]3O)C[C@@H]2O)O[C@@H](C)[C@H]1O[C@H]1O[C@@H](CO)[C@@H](O)[C@@H](O)[C@@H]1O | 2 µM [falling, full curve, poor fit] | 
2 | CCNc1nc(Cl)nc(NC(C)C)n1 | 5.01 µM [rising, partial curve, poor fit] | 
3 | Oc1c(Br)c(Br)c(Br)c(Br)c1Br | 2.51 µM [falling, full curve] | 
4 | BrCC(Br)(Br)Br |  | 31.6 µM [rising, partial curve]
5 | CCOC(=O)c1ccc(NC(=O)c2cccn(Cc3ccccc3F)c2=O)cc1 | 3.98 µM [rising, full curve] | 
6 | O=C1Nc2cc(Cl)c(Cl)cc2N2CCNC[C@H]12 | 39.8 µM [falling, partial curve] | 
7 | CSC([N-]/N=C/c1cccc(C)n1)=[S]=[Cu].CS[C@H]([S-])[N-]/N=C/c1cccc(C)n1 | 0.794 µM [falling, full curve] | 1 µM [rising, partial curve]
8 | N#Cc1ccccc1NC(=O)c1cccn(Cc2ccccc2)c1=O | 3.16 µM [falling, single point] | 
9 | NCC#Cc1ccccc1 | 31.6 µM [falling, partial curve] | 5.01 µM [rising, partial curve, poor fit]
10 | O=C(Cn1cc(C(=O)c2ccccc2)c2ccccc21)Nc1ccc(Br)cc1 | 7.94 µM [falling, partial curve] | 
11 | COc1ccc(-c2nc(CN3C(=O)CN=C(c4ccccc4Cl)c4cc(Cl)ccc43)c(C)o2)cc1OC | 15.8 µM [falling, partial curve] | 
12 | CNc1ccc2oc(C[C@H]3O[C@]4(CC[C@H]3C)O[C@H]([C@H](C)C(=O)c3ccc[nH]3)[C@H](C)C[C@H]4C)nc2c1C(=O)O | 10 µM [falling, partial curve] | 
13 | COc1cccc2c1C(=O)c1c(O)c3c(c(O)c1C2=O)C[C@](O)(/C(C)=N\O)C[C@@H]3O[C@H]1C[C@H](N)[C@@H](O)[C@H](C)O1 | 3.16 µM [falling, partial curve] | 
14 | O=c1c2ccccc2[se]n1-c1ccccc1 | 25.1 µM [falling, partial curve] and 5.01 µM [falling, partial curve] | 7.94 µM [rising, partial curve] and 15.8 µM [rising, partial curve]
15 | C/C=C(\C)C(=O)O[C@@H]1C(C)=C2[C@H]([C@@H]1OC(=O)CCCCCCC)[C@@](C)(OC(C)=O)C[C@@H](OC(=O)CCC)[C@@]1(O)[C@H]2OC(=O)[C@]1(C)O |  | 0.0631 µM [rising, full curve]
16 | CCn1nc(-c2cccs2)nc2c(=O)n(C)c(=O)nc1-2 | 10 µM [falling, partial curve] | 3.98 µM [rising, partial curve]
17 | CN1CCN(c2ccc(NC(=O)C(C)(C)C)cc2)CC1 | 15.8 µM [falling, partial curve] | 
18 | Cc1cccc(-n2c(/C=C/c3cn(C)c4ccccc34)nc3ccccc3c2=O)c1 | 3.16 µM [falling, full curve] | 
19 | Cc1cc(NC(=O)c2cccn(Cc3cccc(Cl)c3)c2=O)no1 | 0.251 µM [falling, full curve, poor fit] | 

Single records, from the list above:
CC(=O)O[C@H]1C[C@@H](O[C@@H]2[C@H](C)O[C@H](O[C@@H]3[C@H](C)O[C@H](O[C@@H]4CC[C@@]5(C)[C@@H](CC[C@]6(C)[C@]5(C)C[C@H](O)[C@]5(C)[C@@H](C7=CC(=O)OC7)CC[C@@]56O)C4)C[C@@H]3O)C[C@@H]2O)O[C@@H](C)[C@H]1O[C@H]1O[C@@H](CO)[C@@H](O)[C@@H](O)[C@@H]1O is listed as AC50 [1]: 2 µM [falling, full curve, poor fit]
C/C=C(\C)C(=O)O[C@@H]1C(C)=C2[C@H]([C@@H]1OC(=O)CCCCCCC)[C@@](C)(OC(C)=O)C[C@@H](OC(=O)CCC)[C@@]1(O)[C@H]2OC(=O)[C@]1(C)O is listed as AC50 [2]: 0.0631 µM [rising, full curve]
COc1ccc(-c2nc(CN3C(=O)CN=C(c4ccccc4Cl)c4cc(Cl)ccc43)c(C)o2)cc1OC is listed as AC50 [1]: 15.8 µM [falling, partial curve]
Cc1cccc(-n2c(/C=C/c3cn(C)c4ccccc34)nc3ccccc3c2=O)c1 is listed as AC50 [1]: 3.16 µM [falling, full curve]

Following part

Row | SMILES | AC50 [1] | AC50 [2]
20 | O=C1CN=C(c2ccccc2)c2oc3ccc(Br)cc3c2N1 | 3.98 µM [rising, single point] | 
21 | CCCCCn1c(N)c(C(=O)NCCN2CCOCC2)c2nc3ccccc3nc21 | 39.8 µM [falling, single point] | 
22 | O=C(COc1cccc(Cl)c1)N1CCN(CCc2ccncc2)CC1 | 10 µM [falling, partial curve] | 
23 | CN(C)c1ccc(N=O)cc1 | 3.16 µM [falling, full curve] | 3.16 µM [rising, full curve]
24 | Cc1ccc(Cn2cccc(C(=O)Nc3cc([N+](=O)[O-])ccc3C)c2=O)cc1 | 3.16 µM [rising, full curve] | 
25 | C[C@@H]1O[C@H](O[C@H]2C[C@@H](O)[C@@]3(CO)[C@H]4[C@@H](O)C[C@]5(C)[C@@H](C6=CC(=O)OC6)CC[C@]5(O)[C@H]4CC[C@]3(O)C2)[C@@H](O)[C@H](O)[C@@H]1O | 0.631 µM [falling, full curve, poor fit] | 
26 | COC(=O)c1c(C)n(Cc2ccc3c(c2)OCO3)c2ccc(O)cc12 | 10 µM [falling, partial curve] | 
27 | O=C(COc1ccccc1Cl)N1CCN(CCc2ccncc2)CC1 | 1.26 µM [falling, partial curve] | 
28 | O=C(CCc1nc(C2=CCN(Cc3cccc(Cl)c3)CC2)no1)Nc1ccccc1F | 1 µM [falling, partial curve, poor fit] | 
29 | Cc1ccc(N2C(=O)NC(=O)C3(Cc4ccccc4N4CCN(c5ccccc5)CC43)C2=O)cc1 (centres undefined) | 1.26 µM [falling, full curve] | 
30 | c1ccc(CCCN2CCN(CCOC(c3ccccc3)c3ccccc3)CC2)cc1 | 31.6 µM [falling, partial curve] | 
31 | O=c1c2ccccc2nc(/C=C\c2ccc(F)cc2)n1-c1ccccc1F | 10 µM [falling, partial curve] | 
32 | Cc1cccc(NC(=O)Cn2cc(C(=O)c3ccccc3)c3ccccc32)c1 | 25.1 µM [falling, single point] | 
33 | O=C(O)[C@H]1[C@H](C(=O)O)[C@H]2CC[C@@H]1O2 |  | 31.6 µM [rising, partial curve, poor fit]
34 | CC[n+]1c(-c2ccccc2)c2cc(N)ccc2c2ccc(N)cc21 | 0.501 µM [falling, full curve, poor fit] | 
35 | COc1ccc(Cl)cc1NC(=O)CN1C(=O)CN=C(c2ccccc2)c2cc(Cl)ccc21 | 20 µM [falling, single point] | 
36 | O=c1c2ccccc2nc(/C=C/c2cccc3ccccc23)n1-c1ccccc1Cl | 10 µM [falling, partial curve] | 
37 | Fc1ccc2c(c1)nnn2C1CCN(Cc2nnnn2CCc2ccccc2)CC1 | 25.1 µM [falling, single point] | 
38 | C(=C/c1ccccc1)/CN1CCN(CCOC(c2ccccc2)c2ccccc2)CC1 | 31.6 µM [falling, partial curve] | 

Row | SMILES | AC50 [1] | AC50 [2]
39 | COc1ccc2[nH]cc(C3=CCNCC3)c2c1 | 31.6 µM [falling, partial curve] | 
40 | Cc1ccc(-n2c(/C=C/c3ccc(Br)s3)nc3ccccc3c2=O)cc1 | 25.1 µM [falling, partial curve] | 
41 | Cc1cccc(-n2c(/C=C/c3ccccc3O)nc3ccccc3c2=O)c1 | 15.8 µM [falling, partial curve] | 
42 | CC1=C(O)C(=O)[C@H]2O[C@@H]2C1=O | 3.98 µM [rising, full curve] | 15.8 µM [rising, partial curve]
43 | O=c1c2ccccc2nc(/C=C\c2ccccc2F)n1-c1ccc(O)cc1 | 25.1 µM [falling, single point] | 
44 | Nc1c(C(=O)OCC2CCCO2)c2nc3ccccc3nc2n1Cc1cccs1 (centres undefined) | 25.1 µM [falling, partial curve] | 
45 | Cc1c(C(c2ccc(Cl)cc2Cl)c2c(O)c3ccccc3oc2=O)c(=O)n(-c2ccccc2)n1C (centres undefined) | 12.6 µM [falling, partial curve] | 
46 | COc1ccc(C(=O)Nc2ccc(Cl)cc2C(=O)c2ccccc2)c(OC)c1 | 12.6 µM [falling, partial curve] | 
47 | Cc1ccccc1CN1C(=O)CN=C(c2ccccc2)c2cc(Cl)ccc21 | 31.6 µM [falling, partial curve] | 
48 | Cc1nc2cc(-c3cccc(F)c3)nn2c(C)c1CCC(=O)N1CCC2(CC1)OCCO2 | 0.398 µM [falling, full curve] | 
49 | Cc1cc(-n2c(/C=C/c3ccc(Br)s3)nc3ccccc3c2=O)ccc1Br | 20 µM [falling, partial curve] | 
50 | O=S(=O)(Cl)c1ccccc1 |  | 39.8 µM [rising, partial curve]
51 | CC[C@H]1CN2CCc3cc(OC)c(OC)cc3[C@H]2C[C@@H]1C[C@H]1NCCc2c1[nH]c1ccc(O)cc21 | 0.0631 µM [falling, full curve] | 
52 | COc1ccc(NC(=O)CN2C(=O)C(C)N=C(c3ccccc3F)c3cc(Cl)ccc32)c(OC)c1 (centres undefined) | 39.8 µM [falling, single point] | 
53 | CCCNC(=O)c1c(N)n(CC2CCCO2)c2nc3ccccc3nc12 (centres undefined) | 25.1 µM [falling, partial curve] | 
54 | CCCCCCCCCCCC[N+](C)(C)CCOc1ccccc1 | 39.8 µM [falling, partial curve, poor fit] | 
55 | CCCCCCCCn1sccc1=O | 15.8 µM [falling, full curve] | 3.16 µM [rising, partial curve]
56 | CC(C)(c1ccc(OC[C@@H]2CO2)cc1)c1ccc(OC[C@H]2CO2)cc1 | 39.8 µM [falling, partial curve] | 
57 | COC(=O)C1=C(N)Oc2c(c(=O)oc3ccccc23)[C@]12C(=O)N(C)c1ccccc12 | 0.316 µM [falling, full curve] | 
